According to the M2OR odorant receptor database:
The list shows a part of the results, in another mix than the full data. Calls are pooled over several reports, among them a noisy single-well screen. The list shows a part of the results. The list shows a part of the results.

How the values were obtained:
Conditions in all cases: stereoisomer not certain
OR5AN1 (Homo sapiens) = target: T1, OR5AN1 (Homo sapiens) (UniProt Q8NGI8)
T1 sequence (whole entry): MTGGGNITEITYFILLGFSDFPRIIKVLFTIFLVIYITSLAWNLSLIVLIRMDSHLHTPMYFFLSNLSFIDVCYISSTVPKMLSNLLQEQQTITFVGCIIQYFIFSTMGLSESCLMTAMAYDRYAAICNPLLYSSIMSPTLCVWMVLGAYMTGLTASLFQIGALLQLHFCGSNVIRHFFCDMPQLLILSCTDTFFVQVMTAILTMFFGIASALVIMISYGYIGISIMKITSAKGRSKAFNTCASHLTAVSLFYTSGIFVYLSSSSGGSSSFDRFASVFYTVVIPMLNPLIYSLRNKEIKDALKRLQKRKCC
Summary of the method: (§1)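 Assay methods differ from source to source, frequently being transient luciferase assays in mammalian cell lines. For each receptor–molecule pair, the label responsive (active) applies when the original authors judged the measured signal statistically different from baseline, and non-responsive (inactive) applies otherwise.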

OR5AR1 (Homo sapiens) = target: T2, OR5AR1 (Homo sapiens) (UniProt Q8NGP9)
T2 sequence (whole entry): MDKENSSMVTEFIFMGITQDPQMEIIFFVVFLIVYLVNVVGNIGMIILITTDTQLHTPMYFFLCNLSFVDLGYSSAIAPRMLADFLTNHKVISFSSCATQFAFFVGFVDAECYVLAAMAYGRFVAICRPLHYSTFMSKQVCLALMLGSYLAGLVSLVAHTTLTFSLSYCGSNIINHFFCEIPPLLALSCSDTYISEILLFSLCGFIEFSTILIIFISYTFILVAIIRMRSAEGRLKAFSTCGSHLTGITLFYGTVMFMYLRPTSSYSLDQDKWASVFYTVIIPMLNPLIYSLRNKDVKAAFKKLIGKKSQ
Summary of the method: as §1

OR5AS1 (Homo sapiens) = target: T3, OR5AS1 (Homo sapiens) (UniProt Q8N127)
T3 sequence (whole entry): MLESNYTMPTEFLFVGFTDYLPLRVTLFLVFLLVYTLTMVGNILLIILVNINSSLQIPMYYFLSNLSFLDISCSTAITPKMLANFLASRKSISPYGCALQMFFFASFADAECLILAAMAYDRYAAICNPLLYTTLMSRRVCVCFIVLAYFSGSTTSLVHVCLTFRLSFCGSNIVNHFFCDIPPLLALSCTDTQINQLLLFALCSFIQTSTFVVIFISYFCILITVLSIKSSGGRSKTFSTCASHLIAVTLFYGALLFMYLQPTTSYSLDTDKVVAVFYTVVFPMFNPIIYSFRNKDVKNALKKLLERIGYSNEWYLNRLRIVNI
Summary of the method: as §1

OR5AU1 (Homo sapiens) = target: T4, OR5AU1 (Homo sapiens) (UniProt Q8NGC0)
T4 sequence (whole entry): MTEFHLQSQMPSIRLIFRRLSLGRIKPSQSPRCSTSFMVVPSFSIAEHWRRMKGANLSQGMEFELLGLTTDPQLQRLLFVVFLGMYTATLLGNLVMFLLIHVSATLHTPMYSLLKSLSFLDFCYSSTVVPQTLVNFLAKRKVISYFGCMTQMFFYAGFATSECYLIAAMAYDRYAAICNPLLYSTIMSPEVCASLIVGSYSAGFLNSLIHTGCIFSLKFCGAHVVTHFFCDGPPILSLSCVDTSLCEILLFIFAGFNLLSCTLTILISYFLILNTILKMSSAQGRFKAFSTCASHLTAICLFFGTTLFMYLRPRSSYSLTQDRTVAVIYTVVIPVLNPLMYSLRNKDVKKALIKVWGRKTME
Summary of the method: as §1

OR5B17 (Homo sapiens) = target: T5, OR5B17 (Homo sapiens) (UniProt Q8NGF7)
T5 sequence (whole entry): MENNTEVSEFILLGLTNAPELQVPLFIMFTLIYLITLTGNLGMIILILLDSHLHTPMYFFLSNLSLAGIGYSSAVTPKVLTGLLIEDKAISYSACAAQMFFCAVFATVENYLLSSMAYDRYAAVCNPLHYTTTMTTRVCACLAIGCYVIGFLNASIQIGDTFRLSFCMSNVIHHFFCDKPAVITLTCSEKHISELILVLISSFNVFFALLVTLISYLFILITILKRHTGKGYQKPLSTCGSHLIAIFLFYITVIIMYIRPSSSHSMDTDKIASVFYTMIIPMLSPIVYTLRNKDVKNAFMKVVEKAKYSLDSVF
Summary of the method: as §1

OR5B2 = test system: T6, OR5B2
T6 sequence (whole entry): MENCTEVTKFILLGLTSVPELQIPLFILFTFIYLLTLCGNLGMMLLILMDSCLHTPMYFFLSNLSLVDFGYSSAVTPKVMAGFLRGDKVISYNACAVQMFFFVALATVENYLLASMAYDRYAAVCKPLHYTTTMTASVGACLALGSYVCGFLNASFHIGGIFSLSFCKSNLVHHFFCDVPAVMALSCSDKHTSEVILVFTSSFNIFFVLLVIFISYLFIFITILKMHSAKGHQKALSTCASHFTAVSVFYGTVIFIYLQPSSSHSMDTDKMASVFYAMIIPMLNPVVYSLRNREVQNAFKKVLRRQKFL
Summary of the method: as §1

OR5B3 (Homo sapiens) = target: T7, OR5B3 (Homo sapiens) (UniProt Q8NH48)
T7 sequence (whole entry): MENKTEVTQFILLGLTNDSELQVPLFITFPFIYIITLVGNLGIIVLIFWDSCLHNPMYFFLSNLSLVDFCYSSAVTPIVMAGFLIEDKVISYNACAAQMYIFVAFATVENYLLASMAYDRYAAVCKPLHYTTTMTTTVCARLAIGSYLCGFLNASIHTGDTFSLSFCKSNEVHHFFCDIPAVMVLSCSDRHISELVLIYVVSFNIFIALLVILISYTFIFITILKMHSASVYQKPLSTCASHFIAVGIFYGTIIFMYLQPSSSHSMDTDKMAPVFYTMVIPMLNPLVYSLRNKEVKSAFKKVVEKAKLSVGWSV
Summary of the method: as §1

OR5BC = test system: T8, OR5BC
T8 sequence (whole entry): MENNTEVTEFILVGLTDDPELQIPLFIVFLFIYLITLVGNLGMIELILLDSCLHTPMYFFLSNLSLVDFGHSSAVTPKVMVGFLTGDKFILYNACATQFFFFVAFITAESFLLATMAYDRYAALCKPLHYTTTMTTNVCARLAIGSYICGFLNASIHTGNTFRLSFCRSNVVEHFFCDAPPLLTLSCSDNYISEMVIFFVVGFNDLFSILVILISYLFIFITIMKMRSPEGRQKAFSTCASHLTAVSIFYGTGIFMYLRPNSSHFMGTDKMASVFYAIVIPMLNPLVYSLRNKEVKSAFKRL
Summary of the method: as §1

OR5BL = test system: T9, OR5BL
T9 sequence (whole entry): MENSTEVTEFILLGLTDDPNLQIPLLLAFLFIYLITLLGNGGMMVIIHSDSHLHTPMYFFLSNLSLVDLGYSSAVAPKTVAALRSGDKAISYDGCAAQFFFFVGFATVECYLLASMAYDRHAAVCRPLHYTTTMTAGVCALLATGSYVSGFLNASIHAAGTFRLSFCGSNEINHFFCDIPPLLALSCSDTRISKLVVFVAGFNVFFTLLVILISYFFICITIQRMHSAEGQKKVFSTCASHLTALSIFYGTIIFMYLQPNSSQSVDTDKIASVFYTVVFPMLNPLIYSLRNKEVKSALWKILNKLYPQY
Summary of the method: as §1

OR5C1 (Homo sapiens) = target: T10, OR5C1 (Homo sapiens) (UniProt Q8NGR4)
T10 sequence (whole entry): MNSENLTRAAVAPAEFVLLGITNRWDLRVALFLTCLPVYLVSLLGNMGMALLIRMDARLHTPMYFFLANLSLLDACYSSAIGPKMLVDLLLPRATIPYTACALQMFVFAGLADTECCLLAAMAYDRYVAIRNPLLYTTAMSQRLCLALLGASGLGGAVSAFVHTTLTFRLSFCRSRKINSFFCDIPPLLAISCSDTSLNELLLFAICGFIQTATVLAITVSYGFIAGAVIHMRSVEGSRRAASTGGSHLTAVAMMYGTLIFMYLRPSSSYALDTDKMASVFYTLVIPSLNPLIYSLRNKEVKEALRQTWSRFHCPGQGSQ
Summary of the method: as §1

OR5DD = test system: T11, OR5DD
T11 sequence (whole entry): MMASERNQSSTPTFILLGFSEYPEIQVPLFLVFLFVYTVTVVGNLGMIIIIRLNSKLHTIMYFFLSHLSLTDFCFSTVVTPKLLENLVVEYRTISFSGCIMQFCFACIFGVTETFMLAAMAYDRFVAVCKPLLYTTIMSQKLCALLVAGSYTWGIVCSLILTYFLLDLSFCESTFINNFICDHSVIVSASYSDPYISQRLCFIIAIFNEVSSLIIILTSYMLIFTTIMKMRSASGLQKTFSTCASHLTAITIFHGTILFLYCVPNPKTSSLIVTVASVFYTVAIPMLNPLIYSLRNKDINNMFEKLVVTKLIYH
Summary of the method: as §1

OR5DE = test system: T12, OR5DE
T12 sequence (whole entry): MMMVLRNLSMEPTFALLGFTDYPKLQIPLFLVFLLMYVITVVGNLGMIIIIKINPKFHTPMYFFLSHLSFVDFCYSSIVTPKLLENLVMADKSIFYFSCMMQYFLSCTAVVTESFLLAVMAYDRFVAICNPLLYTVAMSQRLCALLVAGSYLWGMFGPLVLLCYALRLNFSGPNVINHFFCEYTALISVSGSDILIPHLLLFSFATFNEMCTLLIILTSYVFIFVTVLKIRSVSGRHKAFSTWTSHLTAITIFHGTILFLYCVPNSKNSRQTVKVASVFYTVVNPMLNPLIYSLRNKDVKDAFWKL
Summary of the method: as §1

Measured: odorant receptor agonist call

CCCCCCCC=CC=O
inactive: OR5AN1 (Homo sapiens) | OR5AR1 (Homo sapiens) | OR5AS1 (Homo sapiens) | OR5AU1 (Homo sapiens) | OR5B17 (Homo sapiens) | OR5B2 | OR5B3 (Homo sapiens) | OR5BC | OR5BL | OR5C1 (Homo sapiens) | OR5DD | OR5DE

CC12CCC(C1)C(C)(C)C2=O (stereo not given)
inactive: OR5AN1 (Homo sapiens) | OR5AR1 (Homo sapiens) | OR5AS1 (Homo sapiens) | OR5AU1 (Homo sapiens) | OR5B17 (Homo sapiens) | OR5B2 | OR5B3 (Homo sapiens) | OR5BC | OR5BL | OR5C1 (Homo sapiens) | OR5DD | OR5DE

CCCCCC(C)=O
inactive: OR5AN1 (Homo sapiens) | OR5AR1 (Homo sapiens) | OR5AS1 (Homo sapiens) | OR5AU1 (Homo sapiens) | OR5B17 (Homo sapiens) | OR5B2 | OR5B3 (Homo sapiens) | OR5BL | OR5C1 (Homo sapiens) | OR5DD

CCCCCCCCCCC=O
inactive: OR5AN1 (Homo sapiens) | OR5AR1 (Homo sapiens) | OR5AS1 (Homo sapiens) | OR5AU1 (Homo sapiens) | OR5B17 (Homo sapiens) | OR5B2 | OR5B3 (Homo sapiens) | OR5BC | OR5BL | OR5C1 (Homo sapiens) | OR5DD | OR5DE

CC(=O)OC(C)(C)C1CC=C(C)CC1 (stereo not given)
inactive: OR5AN1 (Homo sapiens) | OR5AR1 (Homo sapiens) | OR5AS1 (Homo sapiens) | OR5AU1 (Homo sapiens) | OR5B17 (Homo sapiens) | OR5B2 | OR5B3 (Homo sapiens) | OR5BC | OR5BL | OR5C1 (Homo sapiens) | OR5DD | OR5DE

CC1=CCC(C(C)(C)O)CC1 (stereo not given)
inactive: OR5AN1 (Homo sapiens) | OR5AR1 (Homo sapiens) | OR5AS1 (Homo sapiens) | OR5AU1 (Homo sapiens) | OR5B17 (Homo sapiens) | OR5B2 | OR5B3 (Homo sapiens) | OR5BC | OR5BL | OR5C1 (Homo sapiens) | OR5DD | OR5DE
